Source: PubChem BioAssay AID2417 (National Center for Advancing Translational Sciences (NCATS), 2010)
In all, about 140,000 compounds went through this assay and about 4,300 (3.1%) were called active. This list was built around the results that the source calls inconclusive (neither active nor inactive); the mix of calls is not that of the screen.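 How the source made its calls: active means readout at or below -70, meaning at least 70% loss of cells showing the perinucleolar compartment, a nuclear body marking cancer cells; inconclusive means readout between -30 and a set limit; inactive means the rest.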

Experiment: High Content Assay for Compounds that inhibit the Assembly of the Perinucleolar Compartment;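 further: plate controls were DMSO wells for no effect and camptothecin positive control wells for full effect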
Conditions: PC3M PTB-GFP, PNC prevalence imaging, 16 h; at 10 µM; hits give low values
How it was run: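 Compounds are pinned in duplicate onto adhered PC3M cells stably expressing GFP-tagged PTB and incubated 16 h at 37 C. Cells are then fixed, nuclei stained with Hoechst, and PNC-positive cells counted.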

SMILES | activity change (PNC), negative = inhibition
COCCCNC(=O)C1CCCN(S(C)(=O)=O)C1 (stereo unspecified) | inactive: 35.4%
O=C1Nc2ccccc2C(O)(C(=O)NC2CC2)N1c1ccc(Cl)c(Cl)c1 (stereo unspecified) | inactive: 24.2%
Cc1ccc(NC(=O)Cc2noc3ccccc23)nc1 | inactive: -26.4%
COc1ccccc1NC(=O)c1c(C)oc2c1CCCC2 | active: -114%
O=C(NNC(=S)Nc1ccc(Br)cc1)c1ccc(N2CCOCC2)c([N+](=O)[O-])c1 | inactive: 8.8%
CN(C(=O)CCc1nc2ccccc2s1)c1ccccc1 | active: -112%
CCN(CC)C(=O)C1CCCc2c1[nH]c1ccc(Cl)cc21 (stereo unspecified) | active: -93.2%
CC1=NN(C(=O)c2ccc(C)cc2)C(O)(C(F)(F)OC(F)(F)F)C1 (stereo unspecified) | inconclusive: -75.6%
CCOC(=O)CSc1ncnc2c1c(-c1ccccc1)cn2-c1ccc(OC)cc1 | inconclusive: -55.8%
CC(C)c1[nH]nc2c1C(C(C)C)C(C#N)=C(N)O2 (stereo unspecified) | inconclusive: -54%
CN(C(=O)c1ccccc1)c1ccc(OCC(=O)NC2CCS(=O)(=O)C2)cc1 (stereo unspecified) | inactive: -12.8%
COc1cccc(NC(=O)N2CCCC(C(=O)Nc3ccccc3OC)C2)c1 (stereo unspecified) | inconclusive: -47.3%
O=C(N/N=C\c1ccco1)Nc1cccc(Cl)c1 | inactive: 13%
[N-]=[N+]=CC(=O)CC(c1ccccc1)N1C(=O)c2ccccc2C1=O (stereo unspecified) | inconclusive: -35.9%
O=C(CSc1nnc2scc(-c3ccc(Cl)cc3)n12)NCc1ccc2c(c1)OCO2 | active: -85.5%
Cc1ccc(S(=O)(=O)NCCCNC(=O)N2CCOCC2)cc1 | inconclusive: -31.9%
Cc1cc(NC(=O)CC(C)(C)C)nc2c1c(=O)oc1ccccc12 | active: -119%
Cc1cccc(NC(=S)/N=C(\N)Nc2nc(C)c3ccc(C)cc3n2)c1 | inactive: 8.15%
N/C(=N\OC(=O)COc1ccccc1)c1ccccn1 | inconclusive: -36.9%
Cc1ccc(-c2cc(C(=O)NCc3cn(C)nc3C)c3cc(Br)ccc3n2)cc1 | inconclusive: -44.6%
O=C(Nc1nnc(SCc2ccc(F)cc2)s1)C1CC(=O)N(c2ccc3c(c2)OCCO3)C1 (stereo unspecified) | inconclusive: -68.5%
CCCCN(C(=O)CN1CCOCC1)c1c(N)n(CC(C)C)c(=O)[nH]c1=O | active: -81.2%
O=C(O)c1cccc(CN2C(=O)SC(Nc3ccccc3)C2=O)c1 (stereo unspecified) | inactive: -4.7%

SMILES | activity change (PNC), negative = inhibition
Cc1ccc2oc(=O)c3cnn(CC(=O)N4CCCc5ccccc54)c3c2c1 | inconclusive: -31.7%
COc1ccc(NC2SC(=O)N(CC(=O)O)C2=O)cc1 (stereo unspecified) | inconclusive: -33.1%
Cc1ccc(C#N)c(SCc2cc3c(cc2Cl)OCO3)n1 | inconclusive: -55.4%
CCOC(=O)C1CCN(C(C(=O)NC2CCCC2)c2ccc(C)cc2)CC1 (stereo unspecified) | inconclusive: -57.5%
Cc1cc(S(=O)(=O)N2CCCC2)c(C)s1 | inconclusive: -56.6%
COc1ccc(CNC(=O)COC(=O)/C=C/c2cccs2)cc1 | inconclusive: -68.7%
COc1ccc(S(=O)(=O)N(C)CC(=O)Nc2ccccc2C(F)(F)F)cc1 | inconclusive: -34.5%
Cc1ccc(N2CC(C(=O)Oc3cccc(N4C(=O)CCC4=O)c3)CC2=O)cc1 (stereo unspecified) | inconclusive: -67.7%
Cc1ccc(/C=N/N2C(=O)C3C(C2=O)C2C=CC3C23CC3)o1 (stereo unspecified) | inactive: -25.7%
C=CCC1(C#N)C(=S)NC2=C(C(=O)CC(C)(C)C2)C1c1ccc(Br)cc1 (stereo unspecified) | inconclusive: -52.9%
CSc1ccccc1NC(=O)c1c(C)noc1C | inconclusive: -44.4%
Nc1nc2ccc(C(=O)Nc3ccccc3)cc2s1 | inconclusive: -41.8%
O=C1N/C(=N\N=C\c2ccc3ncccc3c2)SC1Cc1ccc(SC(F)F)cc1 (stereo unspecified) | inconclusive: -57.6%
O=C(NCCCCc1ccccc1)C12CN(Cc3ccccc3)CC1C(c1ccc([N+](=O)[O-])cc1)=NO2 (stereo unspecified) | inactive: 22.1%
CC(Sc1ccsc1[N+](=O)[O-])C(=O)NCCc1ccc(Cl)cc1 (stereo unspecified) | inactive: -6.02%
CN=C1SC(CC(=O)Nc2sc(C)c(C)c2C(=O)OC)C(=O)N1C (stereo unspecified) | inconclusive: -39.7%
CCOc1cc(NC(=O)C2CCCCC2)c(OCC)cc1NC(=O)c1ccco1 | inactive: -14%
Cc1ccc(Oc2cc(NC(=O)CCCn3nc(C)c([N+](=O)[O-])c3C)cc([N+](=O)[O-])c2)cc1 | inactive: 5%
O=C(c1ccccc1)N1CCN(C(=O)C23CC4CC(CC(C4)C2)C3)CC1 | active: -127%
CCC(Sc1nc2cc(OC)c(OC)cc2c(=O)n1Cc1ccco1)C(=O)NCCOC (stereo unspecified) | inactive: 17.2%
CCCn1c(N)c(C(=O)CSc2nnnn2-c2ccc(O)cc2)c(=O)n(C)c1=O | inactive: 25.8%
CCCC(=O)Nc1nnc(-c2ccco2)s1 | inconclusive: -40.6%
N#Cc1c(-c2ccccc2)cc(-c2ccco2)c(C#N)c1N | inconclusive: -55.7%

SMILES | activity change (PNC), negative = inhibition
COC(=O)c1ccccc1NC(=O)c1noc2c1CC(C(C)(C)C)CC2 (stereo unspecified) | inconclusive: -52.3%
CN(c1ccc(C(=O)O)cc1)S(=O)(=O)c1ccccc1 | inconclusive: -36.2%
CCCCn1c(SCC(=O)c2ccc3c(c2)OCCO3)nnc1-c1ccoc1C | inconclusive: -39.2%
O=C(COC(=O)c1ccncc1)Nc1cc(Cl)ccc1Cl | inactive: 1.36%
CNC(=S)N/N=C/c1cn(CCOc2ccc(OC)cc2)c2ccccc12 | inconclusive: -42.1%
CC(OC(=O)Cc1ccc(Cl)cc1)C(=O)NCCC1=CCCCC1 (stereo unspecified) | inactive: 4%
CC1=Nn2c(nnc2-c2ccco2)SC1 | inactive: -18.7%
Cc1sc2ncnc(N3CCN(c4ncccn4)CC3)c2c1C | inconclusive: -53.1%
CC(C)CCNC(=O)NC(=O)CSc1nnc(-c2ccccc2Br)o1 | inconclusive: -32.2%
COc1ccc(S(=O)(=O)N2CCOCC2)cc1NC(=O)Cc1ccccc1Cl | inactive: 24.4%
O=C(/C=C/c1ccc(Cl)cc1Cl)NCc1ccncc1 | inconclusive: -33.7%
CC1CCN(c2ccc(/C=C(\C#N)c3nn(-c4ccccc4)c(N)c3C#N)cc2[N+](=O)[O-])CC1 | inconclusive: -78.2%
Cc1ccc(OCc2ccc(C(=O)N3CCOCC3)cc2)cc1C | inconclusive: -38.9%
COC(=O)c1c[nH]n2c(=O)cc(C)nc12 | inactive: -2.52%
CCOC(=O)C(Sc1nn(C)c(=S)s1)C(C)=O (stereo unspecified) | inconclusive: -52.4%
CCOc1ccc(N=CC2=C(O)CC(C)(C)CC2=O)cc1 | inactive: -21.1%
O=C(CSc1nnc(CNC(=O)c2ccccc2F)o1)c1ccc(Cl)cc1 | inconclusive: -31.5%
Cc1ccc(C(=O)CSc2ncnc3sc4c(c23)CCCC4)cc1 | inconclusive: -47.3%
Cc1noc(C)c1C(=O)Nc1ccc(F)cc1F | inconclusive: -56.3%
COC(=O)c1ccc(OCC(=O)c2cccc(OC)c2)cc1 | inactive: -0.863%
CC(C)c1onc(C(=O)N2CCCCC2C)c1[N+](=O)[O-] (stereo unspecified) | inactive: -11.6%
COc1ccc(S(=O)(=O)/N=C2/NC(=O)/C(=C/c3ccco3)S2)cc1 | inactive: 3.11%
Cc1nn(-c2ccccc2)c2c1C1(C(=O)Nc3ccccc31)N1C(=N2)Sc2ccccc21 (stereo unspecified) | inconclusive: -45.4%

As entered above:
Entry of `CC1=Nn2c(nnc2-c2ccco2)SC1` under activity change (PNC), negative = inhibition: inactive: -18.7%
Entry of `Cc1noc(C)c1C(=O)Nc1ccc(F)cc1F` under activity change (PNC), negative = inhibition: inconclusive: -56.3%
Entry of `CC(C)CCNC(=O)NC(=O)CSc1nnc(-c2ccccc2Br)o1` under activity change (PNC), negative = inhibition: inconclusive: -32.2%

Continued:

SMILES | activity change (PNC), negative = inhibition
COc1ccc(-c2noc(-c3cccc(Cl)c3)n2)cc1OC | inactive: 33.3%
COc1ccc(N2CC(O)=C(c3n(C)c4ccccc4[n+]3C)C2=N)cc1 | inconclusive: -47.5%
COc1cccc2sc(NC(=O)c3ccc(S(=O)(=O)N4CCOCC4)cc3)nc12 | inconclusive: -33.8%
CC(=O)c1cccc(N(CC(=O)O)S(C)(=O)=O)c1 | inconclusive: -48.8%
CCc1ccc(C2=NN(S(C)(=O)=O)C(c3cccs3)C2)cc1 (stereo unspecified) | active: -100%
CCc1cccc2c(C#N)cn(CC(=O)NCCOC)c12 | inconclusive: -45.3%
CCCCNCc1cc(OC)c(OCC(N)=O)cc1Br | active: -100%
COc1ccc(C(=O)Oc2ccc3c(C)cc(=O)oc3c2C(C)=O)cc1 | inconclusive: -31.9%
CC(=O)C1=C(C)NC(SCSc2ccccc2)=C(C#N)C1c1cccnc1 (stereo unspecified) | active: -86.4%
Cc1cc(C)n2cc(CSc3nnc(SCc4cn5c(C)cc(C)nc5n4)s3)nc2n1 | inconclusive: -57.4%
Cc1cc(S(=O)(=O)N2CCN=C2c2ccccc2)ccc1F | inconclusive: -77.7%
COc1ccc(C2NC(=O)NC3=C2CCc2ccccc23)cc1 (stereo unspecified) | inactive: -6.34%
COc1ccc(NC(=O)CNS(=O)(=O)c2ccc3nc(C)sc3c2)c(OC)c1 | inconclusive: -44.5%
Cc1ccc(C(=O)CCNc2ccc(Br)cc2)o1 | inactive: -22.9%
CC(=O)NS(=O)(=O)c1ccc(NC(=O)c2cc(-c3ccc(C)c(C)c3)nc3ccccc23)cc1 | active: -96.3%
O=C(O)c1ccccc1C(=O)NNc1ccc(Cl)cc1 | inactive: 20.6%
CC(C)(C)c1cc(CN2CCN(CCC#N)CC2)cc(C(C)(C)C)c1O | active: -122%
Cc1cc2occ(CC(=O)NCc3cccs3)c2cc1C(C)C | inconclusive: -76.2%
O=C(NNC(=S)Nc1ccc(Br)cc1Cl)c1ccco1 | inconclusive: -40.7%
CCOC(=O)c1c(-c2ccccc2)csc1NC(=O)C1CCCO1 (stereo unspecified) | inconclusive: -34%
CCc1ccc(NS(=O)(=O)c2ccc3[nH]cc(C(=O)N4CCc5ccccc54)c(=O)c3c2)cc1 | inconclusive: -54.8%
Cc1csc2ncc(C(=O)NCc3ccco3)c(=O)n12 | active: -100%
